Results on 42 sequences are retold here after PMC7819943, “Rice protein-binding microarrays: a tool to detect cis-acting elements near promoter regions in rice”.

By UniProt entry, the sequences of proteins in these tests, tags left out.
UniProt Q0JBA9, entry or part of it: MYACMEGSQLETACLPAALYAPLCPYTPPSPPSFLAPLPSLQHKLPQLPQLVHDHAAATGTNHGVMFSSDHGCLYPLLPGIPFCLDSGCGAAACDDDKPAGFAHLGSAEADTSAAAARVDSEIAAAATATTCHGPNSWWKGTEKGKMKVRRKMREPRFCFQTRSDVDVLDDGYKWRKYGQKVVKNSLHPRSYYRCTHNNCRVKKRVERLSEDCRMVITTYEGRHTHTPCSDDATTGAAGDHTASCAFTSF

The list shows a part of the results.

This assay has as its target OsWRKY34 (Oryza sativa, UniProt Q0JBA9 1-250). As to the kind of experiment: protein-binding microarray (RPBM); PBS, 2% BSA, 51.3 ng/ul salmon testes DNA, 50 uM zinc acetate, 200 nM TF, 25 C, 1 h; high values mean tight binding. The settings on record: protein: recombinant; tags: N-terminal polyhistidine and DsRed monomer fusion (pET32a); label: CyDye5-dUTP incorporated in the synthesized complementary strand; 3' TTTTT single-stranded linker to array surface; dsDNA, one strand shown. In a few lines: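 Transcription factors were made in E. coli BL21-CodonPlus as N-terminal fusions to a polyhistidine tag and DsRed, then purified on Ni–NTA. After primer extension with Cy5-dUTP and blocking with 2% BSA, a custom Agilent array was exposed for 1 h at 25 °C to 200 nM protein in PBS, 2% BSA, salmon testes DNA and 50 µM zinc acetate. Washed arrays were scanned on an Axon 4000B, and the binding signal is per-feature fluorescence intensity in arbitrary units.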
Regarding “ATGTTTCAAATTTGCACAGAGCATGCATTTTCTTTGGTTACGGAGTCACCTAGTGCAG”, the binding signal is 8590 fluorescence intensity (a.u.).

“TCCCTCGGTCCCATCGTATATATATATACCGTATGTCCCGCGGAGTCACCTAGTGCAG”: the binding signal is 9470 fluorescence intensity (a.u.).

As to “ACACAGCTCCAACCCATGCACATCCATCCAACTTAATTTGCGGAGTCACCTAGTGCAG”, the binding signal was 10500 fluorescence intensity (a.u.).

On to “GGTCCTTTTAGGATAGGATAACGCATTTCTCGTCTTCACACGGAGTCACCTAGTGCAG”, for which the binding signal was 8390 fluorescence intensity (a.u.).

Turning to “TCCATTCCATATTATAAGTTGTTTTGGTCTTTCTATCCCTCGGAGTCACCTAGTGCAG”, the binding signal was 8760 fluorescence intensity (a.u.).

As for “GCCGCCACCACCGCCTCTTTGCCGGAGGGCTCGAGATCGCCGGAGTCACCTAGTGCAG”, the binding signal was 8480 fluorescence intensity (a.u.).

For “TGGTAGGGTTTGTGCACTGTTGAGATGAAAAGGAAAGCGTCGGAGTCACCTAGTGCAG”, the binding signal is 9330 fluorescence intensity (a.u.).

In the case of “CATCCGCGAGCACTTTGACTAATCAGAATATCAGTTCCCGCGGAGTCACCTAGTGCAG”, the binding signal is 8760 fluorescence intensity (a.u.).

As for “CCTTCGTGGTCGTGGCTTACCAGCACCACCCACCTACCGCCGGAGTCACCTAGTGCAG”, the binding signal was 8630 fluorescence intensity (a.u.).

Take “CCAACTGCTCTATTCCACTACAATCTCAGGCTACTGCTAACGGAGTCACCTAGTGCAG”: the binding signal is 8660 fluorescence intensity (a.u.).

For “GGGTTATGCGAAGGGTCCTGTCACGGCCTCTATCCGGTATCGGAGTCACCTAGTGCAG”, the binding signal is 9600 fluorescence intensity (a.u.).

On to “AATTGCATTCTAAATACTATGGCCCGTTTCGTGTCTTGGACGGAGTCACCTAGTGCAG”, for which the binding signal was 8590 fluorescence intensity (a.u.).

“GTTCTAACGATCGCTCACCTCCTCGTTTTATAGCGCCTTCCGGAGTCACCTAGTGCAG”: the binding signal is 13200 fluorescence intensity (a.u.).

On to “CTACACACACACACTCTTCTCCAGCTTCTTCCCGCCACGACGGAGTCACCTAGTGCAG”, for which the binding signal was 8160 fluorescence intensity (a.u.).

Regarding “CAAAATCCCATTGCTCACCCGCGTTATATAACCGCGGCCGCGGAGTCACCTAGTGCAG”, the binding signal is 9590 fluorescence intensity (a.u.).

On to “AGTTGTCGTTAATCGGAGTGTGATAATTAATTATTTATATCGGAGTCACCTAGTGCAG”, for which the binding signal was 8240 fluorescence intensity (a.u.).

For “CATTTTTGCAGGCATATTTTTGGCTTATGCTCCTTGTTCTCGGAGTCACCTAGTGCAG”, the binding signal is 8540 fluorescence intensity (a.u.).

As for “GTGTGGATTTTTTTTCCCCGGTGGTTTGTGGGTGTTTGGACGGAGTCACCTAGTGCAG”, the binding signal was 12600 fluorescence intensity (a.u.).

Turning to “ACCTTTTTTGCACTTTTCTTCGGTTGCCATCTTCGTAAATCGGAGTCACCTAGTGCAG”, the binding signal was 11100 fluorescence intensity (a.u.).

As to “TTAAGACGGGGAGAGAGAAGGGGAGGGAGGGGCTCGCTGTCGGAGTCACCTAGTGCAG”, the binding signal is 13200 fluorescence intensity (a.u.).

Consider “TATACATATATCCTCCTTCTGTCCAGCTAACGGTTTATATCGGAGTCACCTAGTGCAG”, for which the binding signal is 9460 fluorescence intensity (a.u.).

Regarding “GAACCCTGAGTACGTTTTTTTCCTCTTTTTTCTAATTATACGGAGTCACCTAGTGCAG”, the binding signal is 8310 fluorescence intensity (a.u.).

As to “AACATTCCGTCCTGAACTTTTTTCATTTGGCCACTGTTACCGGAGTCACCTAGTGCAG”, the binding signal was 9020 fluorescence intensity (a.u.).

“TTTTTTTCTCGGGATACATGACTCACTTGCGAAAACATCCCGGAGTCACCTAGTGCAG”: the binding signal is 9220 fluorescence intensity (a.u.).

With “CCAGATGTGCACCCCGTATCCCGCGGCGCTACCGCTACCACGGAGTCACCTAGTGCAG”, the binding signal was 10100 fluorescence intensity (a.u.).

As for “TGCCCACTCCGCATATTCTGCGCGATATCCTCGTCCCGTACGGAGTCACCTAGTGCAG”, the binding signal is 8330 fluorescence intensity (a.u.).

As to “GTTAAAATTATCTTCACTCGTTGCAACACGCATGTATTTTCGGAGTCACCTAGTGCAG”, the binding signal was 9710 fluorescence intensity (a.u.).

Consider “TTTTCTTTATTCAATCTGTCTTATCCTACTTATATGTATACGGAGTCACCTAGTGCAG”, for which the binding signal was 9920 fluorescence intensity (a.u.).

Turning to “AAAATTTTCTTGTATGCATGTGGGATTATTAGAGTTTTGCCGGAGTCACCTAGTGCAG”, the binding signal was 8360 fluorescence intensity (a.u.).

In the case of “AAGTATACTACATGGTACCACATACCGACATACGTATACACGGAGTCACCTAGTGCAG”, the binding signal is 8050 fluorescence intensity (a.u.).

Turning to “AAACGCTGCTTCGTTCCCAACCCTCGCTTCCGATCAGAGCCGGAGTCACCTAGTGCAG”, the binding signal was 8420 fluorescence intensity (a.u.).

As for “AAGTTTCACATGTTCAAACACCTCTTTTCTCTCTCTTCTTCGGAGTCACCTAGTGCAG”, the binding signal was 10200 fluorescence intensity (a.u.).

Regarding “ACACTGCGCCTCGGGGAGTGGGTATAAAGCGGGGAGGGATCGGAGTCACCTAGTGCAG”, the binding signal was 12800 fluorescence intensity (a.u.).

“ACCTGACTAGCACCCTCATTTAGGTTTTGAATAGTTTGTCCGGAGTCACCTAGTGCAG”: the binding signal was 10600 fluorescence intensity (a.u.).

As to “TCTTTGGTACATTTTCAGCACTTTCCTATGCTTCATTATACGGAGTCACCTAGTGCAG”, the binding signal is 10700 fluorescence intensity (a.u.).

On to “AATAAATGTGCGTTTTATTTTTTTTCTATTGGTGTTAGTACGGAGTCACCTAGTGCAG”, for which the binding signal is 10000 fluorescence intensity (a.u.).

As to “TCCGTGACTATGCTTCTTCTTTTCTTTAATTTTCACCAGACGGAGTCACCTAGTGCAG”, the binding signal was 8750 fluorescence intensity (a.u.).

For “AGAGCCCAACATCTTTTTTTTTGTTTTTTTGAACTTTTTACGGAGTCACCTAGTGCAG”, the binding signal was 11900 fluorescence intensity (a.u.).

With “GTCTCATTCTTCTTATTTCCATTTTTTTTTTCTCTCAAAACGGAGTCACCTAGTGCAG”, the binding signal is 11100 fluorescence intensity (a.u.).

Regarding “TATGCCTGACCCGTAACCCTGACACACATAAGATACATACCGGAGTCACCTAGTGCAG”, the binding signal is 9450 fluorescence intensity (a.u.).

Take “TTCGAAAATACCTTCCAACATCCGGTCAAACATCCGACGTCGGAGTCACCTAGTGCAG”: the binding signal is 8210 fluorescence intensity (a.u.).

For the sequence “TCCTCCTCGTTTTCCGCGCGCACGCTTTTCAAACTGCTAACGGAGTCACCTAGTGCAG”, the binding signal was 8050 fluorescence intensity (a.u.).
